The other results are listed elsewhere or left out.

Protein sequences, listed by entry. Tags and fused reporters are not part of them. Lines headed by an entry give the natural chain unless they say otherwise; changes in a name come on top.
UniProt Q8IWS0: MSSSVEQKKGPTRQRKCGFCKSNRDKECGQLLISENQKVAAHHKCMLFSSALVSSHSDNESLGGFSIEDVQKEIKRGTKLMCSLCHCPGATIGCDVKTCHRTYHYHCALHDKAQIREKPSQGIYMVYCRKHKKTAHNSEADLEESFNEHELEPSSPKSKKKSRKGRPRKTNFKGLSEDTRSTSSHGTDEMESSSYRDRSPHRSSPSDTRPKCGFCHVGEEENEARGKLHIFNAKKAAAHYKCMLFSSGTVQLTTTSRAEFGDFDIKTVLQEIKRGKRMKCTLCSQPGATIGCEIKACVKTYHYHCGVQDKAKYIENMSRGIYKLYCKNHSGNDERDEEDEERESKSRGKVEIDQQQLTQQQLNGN
UniProt Q01813: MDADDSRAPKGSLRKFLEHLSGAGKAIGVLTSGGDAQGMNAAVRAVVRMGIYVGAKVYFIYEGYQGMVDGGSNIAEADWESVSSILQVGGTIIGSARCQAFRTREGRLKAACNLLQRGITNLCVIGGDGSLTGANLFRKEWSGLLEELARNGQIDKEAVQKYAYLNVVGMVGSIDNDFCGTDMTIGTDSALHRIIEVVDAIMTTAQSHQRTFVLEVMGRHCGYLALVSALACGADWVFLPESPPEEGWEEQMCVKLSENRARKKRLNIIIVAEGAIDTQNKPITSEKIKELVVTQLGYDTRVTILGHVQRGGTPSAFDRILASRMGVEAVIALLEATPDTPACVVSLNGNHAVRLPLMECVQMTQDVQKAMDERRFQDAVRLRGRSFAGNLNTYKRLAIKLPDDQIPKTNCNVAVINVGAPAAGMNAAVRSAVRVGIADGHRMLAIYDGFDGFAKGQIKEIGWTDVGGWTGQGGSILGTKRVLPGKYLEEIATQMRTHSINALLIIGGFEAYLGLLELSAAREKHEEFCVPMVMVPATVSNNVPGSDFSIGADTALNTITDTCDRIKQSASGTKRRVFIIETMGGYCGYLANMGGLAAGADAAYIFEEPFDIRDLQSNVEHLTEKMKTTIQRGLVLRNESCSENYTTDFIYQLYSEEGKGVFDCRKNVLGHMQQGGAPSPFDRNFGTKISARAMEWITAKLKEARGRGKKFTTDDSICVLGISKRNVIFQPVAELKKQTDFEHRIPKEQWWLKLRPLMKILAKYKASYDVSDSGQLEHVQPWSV
UniProt O95336: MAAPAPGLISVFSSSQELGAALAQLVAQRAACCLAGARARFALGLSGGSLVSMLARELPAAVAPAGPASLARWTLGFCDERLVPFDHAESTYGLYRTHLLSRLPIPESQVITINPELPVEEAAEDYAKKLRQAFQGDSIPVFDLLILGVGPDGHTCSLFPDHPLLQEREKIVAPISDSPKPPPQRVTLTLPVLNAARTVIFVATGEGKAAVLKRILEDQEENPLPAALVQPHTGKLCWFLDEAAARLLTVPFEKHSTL
UniProt Q96QT6: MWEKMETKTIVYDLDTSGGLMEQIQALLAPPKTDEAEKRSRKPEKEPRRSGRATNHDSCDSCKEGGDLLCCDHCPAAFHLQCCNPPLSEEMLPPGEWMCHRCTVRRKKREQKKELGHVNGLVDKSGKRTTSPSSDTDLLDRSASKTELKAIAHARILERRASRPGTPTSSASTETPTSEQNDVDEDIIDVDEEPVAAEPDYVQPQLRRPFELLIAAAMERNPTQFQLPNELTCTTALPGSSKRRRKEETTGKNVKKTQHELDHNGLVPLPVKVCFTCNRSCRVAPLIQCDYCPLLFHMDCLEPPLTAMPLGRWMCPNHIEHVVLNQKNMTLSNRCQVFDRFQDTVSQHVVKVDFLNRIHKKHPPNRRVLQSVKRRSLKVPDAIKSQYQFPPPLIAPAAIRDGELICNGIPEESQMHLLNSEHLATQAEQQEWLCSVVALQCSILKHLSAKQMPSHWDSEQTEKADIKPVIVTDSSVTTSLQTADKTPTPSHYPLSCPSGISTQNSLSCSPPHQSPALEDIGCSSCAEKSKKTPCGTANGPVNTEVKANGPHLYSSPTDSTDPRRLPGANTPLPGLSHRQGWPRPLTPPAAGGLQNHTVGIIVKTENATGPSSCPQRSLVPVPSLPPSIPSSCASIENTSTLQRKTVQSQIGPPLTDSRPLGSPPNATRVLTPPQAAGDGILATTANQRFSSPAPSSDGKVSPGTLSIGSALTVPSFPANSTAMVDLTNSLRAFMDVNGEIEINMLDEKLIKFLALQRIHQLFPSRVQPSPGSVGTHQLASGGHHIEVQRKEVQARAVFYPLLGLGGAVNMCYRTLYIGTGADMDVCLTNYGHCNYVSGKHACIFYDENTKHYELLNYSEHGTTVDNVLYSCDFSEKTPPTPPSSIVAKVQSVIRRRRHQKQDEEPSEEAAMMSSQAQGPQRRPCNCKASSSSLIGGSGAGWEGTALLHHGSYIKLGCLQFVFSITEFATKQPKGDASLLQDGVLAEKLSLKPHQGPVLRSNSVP
UniProt Q8NDX5: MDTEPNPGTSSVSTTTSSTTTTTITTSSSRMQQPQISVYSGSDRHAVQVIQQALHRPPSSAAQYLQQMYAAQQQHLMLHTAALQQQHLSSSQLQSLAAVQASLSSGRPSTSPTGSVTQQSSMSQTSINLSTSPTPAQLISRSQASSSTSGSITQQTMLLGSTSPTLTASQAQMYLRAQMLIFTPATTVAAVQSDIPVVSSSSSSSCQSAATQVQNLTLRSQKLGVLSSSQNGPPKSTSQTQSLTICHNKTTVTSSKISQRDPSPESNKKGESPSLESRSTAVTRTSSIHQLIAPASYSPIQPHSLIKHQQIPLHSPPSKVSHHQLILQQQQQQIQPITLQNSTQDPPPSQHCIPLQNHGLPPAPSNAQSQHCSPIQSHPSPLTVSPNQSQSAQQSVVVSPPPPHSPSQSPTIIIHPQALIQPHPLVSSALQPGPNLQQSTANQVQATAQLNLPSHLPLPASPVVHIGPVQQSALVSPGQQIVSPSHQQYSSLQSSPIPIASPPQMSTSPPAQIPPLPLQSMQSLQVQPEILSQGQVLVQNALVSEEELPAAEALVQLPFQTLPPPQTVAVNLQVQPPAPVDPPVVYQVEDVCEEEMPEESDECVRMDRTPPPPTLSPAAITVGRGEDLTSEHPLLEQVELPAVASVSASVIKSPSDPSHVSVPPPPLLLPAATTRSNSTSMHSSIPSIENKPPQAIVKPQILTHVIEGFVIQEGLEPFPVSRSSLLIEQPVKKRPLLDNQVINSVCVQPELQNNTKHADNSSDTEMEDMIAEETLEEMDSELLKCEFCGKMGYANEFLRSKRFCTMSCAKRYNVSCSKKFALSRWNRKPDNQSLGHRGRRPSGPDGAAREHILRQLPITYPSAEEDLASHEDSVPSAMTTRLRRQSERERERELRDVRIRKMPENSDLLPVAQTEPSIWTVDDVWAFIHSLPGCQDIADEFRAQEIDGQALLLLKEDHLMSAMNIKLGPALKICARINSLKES
UniProt P00558: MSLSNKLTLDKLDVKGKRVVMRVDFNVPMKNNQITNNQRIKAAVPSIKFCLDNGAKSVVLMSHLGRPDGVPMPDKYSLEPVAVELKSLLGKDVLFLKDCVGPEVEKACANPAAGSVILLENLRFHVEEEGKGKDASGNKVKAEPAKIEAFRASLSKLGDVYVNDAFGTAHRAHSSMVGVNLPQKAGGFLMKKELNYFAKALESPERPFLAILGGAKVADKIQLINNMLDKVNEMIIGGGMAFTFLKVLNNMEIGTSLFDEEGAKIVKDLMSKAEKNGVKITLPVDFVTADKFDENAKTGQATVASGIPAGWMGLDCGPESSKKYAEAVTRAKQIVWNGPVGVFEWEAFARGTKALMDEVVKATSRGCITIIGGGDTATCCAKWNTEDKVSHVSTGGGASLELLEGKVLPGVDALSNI
UniProt Q9NRX4: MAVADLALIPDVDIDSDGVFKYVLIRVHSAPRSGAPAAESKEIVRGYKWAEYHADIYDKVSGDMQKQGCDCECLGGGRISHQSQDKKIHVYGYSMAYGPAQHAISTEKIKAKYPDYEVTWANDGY
UniProt O43175: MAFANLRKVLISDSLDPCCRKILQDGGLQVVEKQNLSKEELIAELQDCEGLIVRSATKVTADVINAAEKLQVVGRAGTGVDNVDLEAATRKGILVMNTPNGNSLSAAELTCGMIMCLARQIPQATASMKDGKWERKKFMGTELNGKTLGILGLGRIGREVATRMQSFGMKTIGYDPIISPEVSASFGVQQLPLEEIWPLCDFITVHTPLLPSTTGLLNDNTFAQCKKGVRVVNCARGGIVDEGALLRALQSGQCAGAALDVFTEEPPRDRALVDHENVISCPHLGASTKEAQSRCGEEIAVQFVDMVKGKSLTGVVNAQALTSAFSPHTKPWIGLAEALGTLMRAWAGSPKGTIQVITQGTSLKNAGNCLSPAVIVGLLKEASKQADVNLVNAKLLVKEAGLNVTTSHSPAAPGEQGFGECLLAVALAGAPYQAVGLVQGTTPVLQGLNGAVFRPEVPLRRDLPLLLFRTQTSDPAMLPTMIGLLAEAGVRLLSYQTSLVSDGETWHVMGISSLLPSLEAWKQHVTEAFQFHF
UniProt O14832: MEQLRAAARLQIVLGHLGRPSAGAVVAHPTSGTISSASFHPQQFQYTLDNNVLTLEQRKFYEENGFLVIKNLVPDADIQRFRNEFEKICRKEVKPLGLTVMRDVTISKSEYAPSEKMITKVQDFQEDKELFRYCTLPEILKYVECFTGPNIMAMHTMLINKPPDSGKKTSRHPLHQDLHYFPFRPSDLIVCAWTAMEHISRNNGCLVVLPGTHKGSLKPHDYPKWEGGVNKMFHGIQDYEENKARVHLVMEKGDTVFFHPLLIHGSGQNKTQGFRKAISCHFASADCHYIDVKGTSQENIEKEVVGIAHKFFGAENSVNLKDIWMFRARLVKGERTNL
UniProt Q96G03: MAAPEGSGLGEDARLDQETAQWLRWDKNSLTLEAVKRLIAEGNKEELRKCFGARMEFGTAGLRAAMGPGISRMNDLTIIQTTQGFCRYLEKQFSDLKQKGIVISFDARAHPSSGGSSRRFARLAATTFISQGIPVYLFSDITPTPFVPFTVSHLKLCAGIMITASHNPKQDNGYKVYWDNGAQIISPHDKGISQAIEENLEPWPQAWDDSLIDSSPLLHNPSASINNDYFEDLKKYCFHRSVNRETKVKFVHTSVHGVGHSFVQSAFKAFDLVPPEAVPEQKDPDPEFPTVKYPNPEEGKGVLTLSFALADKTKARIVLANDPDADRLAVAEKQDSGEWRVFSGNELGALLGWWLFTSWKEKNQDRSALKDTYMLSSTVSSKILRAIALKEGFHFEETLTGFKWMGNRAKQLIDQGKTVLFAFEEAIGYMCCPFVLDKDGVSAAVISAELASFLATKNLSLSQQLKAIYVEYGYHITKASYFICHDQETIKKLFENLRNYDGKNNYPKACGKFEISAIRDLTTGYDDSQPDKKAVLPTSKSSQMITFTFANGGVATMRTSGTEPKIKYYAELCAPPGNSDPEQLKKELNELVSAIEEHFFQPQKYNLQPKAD
UniProt Q8WUB8: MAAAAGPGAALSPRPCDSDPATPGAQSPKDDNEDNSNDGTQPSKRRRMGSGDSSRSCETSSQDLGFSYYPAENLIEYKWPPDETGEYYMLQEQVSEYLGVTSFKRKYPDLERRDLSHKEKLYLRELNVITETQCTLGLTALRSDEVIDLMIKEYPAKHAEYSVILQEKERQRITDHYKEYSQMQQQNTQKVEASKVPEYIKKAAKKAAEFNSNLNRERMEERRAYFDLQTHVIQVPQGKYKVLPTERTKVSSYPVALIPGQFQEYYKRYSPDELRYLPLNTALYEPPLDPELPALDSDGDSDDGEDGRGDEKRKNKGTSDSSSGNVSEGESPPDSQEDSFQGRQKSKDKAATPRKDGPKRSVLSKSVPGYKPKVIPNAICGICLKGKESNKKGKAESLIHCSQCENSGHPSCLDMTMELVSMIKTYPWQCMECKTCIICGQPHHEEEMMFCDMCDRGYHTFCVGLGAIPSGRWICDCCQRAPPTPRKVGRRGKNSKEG
UniProt P35232: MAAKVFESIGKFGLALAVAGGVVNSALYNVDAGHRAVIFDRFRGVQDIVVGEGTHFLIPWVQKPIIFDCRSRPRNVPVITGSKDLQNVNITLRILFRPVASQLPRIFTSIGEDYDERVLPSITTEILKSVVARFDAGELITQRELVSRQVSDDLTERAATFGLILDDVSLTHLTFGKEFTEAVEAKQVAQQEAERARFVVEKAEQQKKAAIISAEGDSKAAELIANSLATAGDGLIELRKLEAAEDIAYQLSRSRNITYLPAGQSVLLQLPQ
UniProt P53609, whole entry, looked up: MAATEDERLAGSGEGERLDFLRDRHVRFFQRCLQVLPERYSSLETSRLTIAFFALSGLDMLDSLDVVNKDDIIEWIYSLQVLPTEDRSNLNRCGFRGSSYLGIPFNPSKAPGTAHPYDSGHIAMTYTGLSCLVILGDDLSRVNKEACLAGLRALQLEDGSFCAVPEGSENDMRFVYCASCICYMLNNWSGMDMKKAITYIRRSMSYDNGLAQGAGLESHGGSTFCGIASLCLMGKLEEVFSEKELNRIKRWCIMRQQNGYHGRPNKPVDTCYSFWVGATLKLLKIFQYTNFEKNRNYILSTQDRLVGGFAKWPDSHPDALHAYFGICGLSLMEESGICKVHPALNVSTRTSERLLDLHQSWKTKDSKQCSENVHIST

Experimental findings from the supplement of paper PMC12067093, “Discovery and optimisation of a covalent ligand for TRIM25 and its application to targeted protein ubiquitination” (Chemical Science, 2025) are described below.
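Also: competitive chemoproteomic profiling in live THP-1 cells with an iodoacetamide desthiobiotin (IA-DTB) probe, comparing probe-labelled peptide intensities in compound-treated cells against DMSO-treated controls.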

Compound in the first experiment: CC1Cc2ccccc2N1C(=O)C1CCCN(C1)C(=O)CCl (mixture of isomers) [TRIM25 ligand 11 (diastereomer mixture)]
In words: probe-labelled cysteine peptide fold change vs DMSO (competition) (log2 fold change); higher = less target engagement (more negative = stronger competition). Conditions: 10 µM; THP-1; incubation time: 4 h.
Take “PHF6_Q8IWS0_305_TYHYHCGVQDK (UniProt Q8IWS0)”: the “probe-labelled cysteine peptide fold change” value is -0.0372.
Still for that read-out and setting: to “PFKP_Q01813_718_KFTTDDSICVLGISK (UniProt Q01813)” belongs -0.0288; to “PGP_A6NDG6_193_YLQQPGCLLVGTNMDNRLPLENGR (UniProt A6NDG6)”, -0.361; to “PGLS_O95336_237_LCWFLDEAAAR (UniProt O95336)”, -0.0391.
Turning to “PHIP_Q8WWQ0_1020_YEVGLPTLCCLK (UniProt Q8WWQ0)”, the “probe-labelled cysteine peptide fold change” value stood at 0.049.
The same measure, in the same setting: to “PHF12_Q96QT6_315_WMCPNHIEHVVLNQK (UniProt Q96QT6)” belongs 0.202; to “PFAS_O15067_975_DAGLHCLELGHTGEAGPHAMVR (UniProt O15067)”, -0.0892; to “PFAS_O15067_606_RIVLVDDRECPVR (UniProt O15067)”, -0.116.
Same read-out and setting: next, “PIK3C2A_O00443_418_NICGENASVK (UniProt O00443)”: 0.126; “PECAM1_P16284_109_CTVIVNNK (UniProt P16284)”: 0.126; “PHC3_Q8NDX5_808_FCTMSCAK (UniProt Q8NDX5)”: -0.0422.
The same measure, in the same setting: next, “PEX1_O43933_310_HCAIHVFPWDQEYFDVEPSFTVTYGK (UniProt O43933)”: -0.244; “PIAS4_Q8N2W9_50_ALQLVQFDCSPELFK (UniProt Q8N2W9)”: -0.0242.
Regarding “PGK1_P00558_367+379+380_GCITIIGGGDTATCCAK (UniProt P00558)”, the “probe-labelled cysteine peptide fold change” value stood at 0.0728.
Still for that read-out and setting: to “PGP_A6NDG6_272_LDTDILLGATCGLK (UniProt A6NDG6)” belongs 0.166; to “PHPT1_Q9NRX4_73_QGCDCECLGGGR (UniProt Q9NRX4)”, -0.0799.
The same measure, in the same setting: next, “PHF12_Q96QT6_613_TENATGPSSCPQR (UniProt Q96QT6)”: 0.0325; “PHF14_O94880_495_EGLLSEAAAEEDIADPFFAYCK (UniProt O94880)”: -0.217.
Same read-out and setting: next, “PFKL_P17858_351_LPLMECVQMTK (UniProt P17858)”: -0.0342.
Take “PHPT1_Q9NRX4_69+71_QGCDCECLGGGR (UniProt Q9NRX4)”: the “probe-labelled cysteine peptide fold change” value is -0.0908.
Still for that read-out and setting: next, “PFKP_Q01813_718_FTTDDSICVLGISKR (UniProt Q01813)”: -0.317.
Regarding “PELP1_Q8IZL8_645_VPPLQPMGPTCPTPAPVPPPEAPSPFR (UniProt Q8IZL8)”, the “probe-labelled cysteine peptide fold change” value is 0.046.
Still for that read-out and setting: next, “PGK1_P00558_50_FCLDNGAK (UniProt P00558)”: 0.0216.
Same read-out and setting: next, “PEPD_P12955_183_FEVNNTILHPEIVECR (UniProt P12955)”: 0.18.
The same measure, in the same setting: to “PHF8_Q9UPP1-2_8_ASVPVYCLCR (UniProt Q9UPP1)” belongs 0.173; to “PHGDH_O43175_281_ALVDHENVISCPHLGASTK (UniProt O43175)”, 0.0302; to “PHF6_Q8IWS0_242_CMLFSSGTVQLTTTSR (UniProt Q8IWS0)”, -0.0147.
“PHYH_O14832_205_NNGCLVVLPGTHK (UniProt O14832)”: the “probe-labelled cysteine peptide fold change” value is -0.0217.
Consider “PGM2_Q96G03_484_ASYFICHDQETIKK (UniProt Q96G03)”, for which the “probe-labelled cysteine peptide fold change” value was found to be 0.258.
Consider “PIK3C2A_O00443_317_STANCHLER (UniProt O00443)”, for which the “probe-labelled cysteine peptide fold change” value was 0.0976.
Still for that read-out and setting: to “PHIP_Q8WWQ0_954_RCPFVPQMGDEVYYFR (UniProt Q8WWQ0)” belongs -0.443; to “PHF10_Q8WUB8_454_TCIICGQPHHEEEMMFCDMCDR (UniProt Q8WUB8)”, -0.265.
The same measure, in the same setting: to “PHB_P35232_69_GVQDIVVGEGTHFLIPWVQKPIIFDCR (UniProt P35232)” belongs 0.115; to “PGGT1B_P53609_369_QCSENVHIST (UniProt P53609)”, 0.226; to “PIGX_Q8TBF5_175_YHRPHSEDGEASIVVNNPDLLMFCDQEFPILK (UniProt Q8TBF5)”, -0.0627.
Consider “PEPD_P12955_482_TVEEIEACMAGCDK (UniProt P12955)”, for which the “probe-labelled cysteine peptide fold change” value was found to be 0.0938.
“PGGT1B_P53609_147_EACLAGLR (UniProt P53609)”: the “probe-labelled cysteine peptide fold change” value stood at 0.00749.

Staying with this experiment, now noted: 50 µM; THP-1; incubation time: 4 h.
Consider “PHF6_Q8IWS0_305_TYHYHCGVQDK (UniProt Q8IWS0)”, for which the “probe-labelled cysteine peptide fold change” value was found to be 0.0401.
On the same count and under the same terms, to “PFKP_Q01813_718_KFTTDDSICVLGISK (UniProt Q01813)” belongs -0.00564; to “PGP_A6NDG6_193_YLQQPGCLLVGTNMDNRLPLENGR (UniProt A6NDG6)”, -0.113; to “PGLS_O95336_237_LCWFLDEAAAR (UniProt O95336)”, -0.0594.
Same read-out and setting: to “PHIP_Q8WWQ0_1020_YEVGLPTLCCLK (UniProt Q8WWQ0)” belongs 0.19.
The same measure, in the same setting: to “PHF12_Q96QT6_315_WMCPNHIEHVVLNQK (UniProt Q96QT6)” belongs 0.00759; to “PFAS_O15067_975_DAGLHCLELGHTGEAGPHAMVR (UniProt O15067)”, -0.162.
Regarding “PFAS_O15067_606_RIVLVDDRECPVR (UniProt O15067)”, the “probe-labelled cysteine peptide fold change” value was -0.0654.
Still for that read-out and setting: next, “PIK3C2A_O00443_418_NICGENASVK (UniProt O00443)”: 0.0445.
On the same count and under the same terms, next, “PECAM1_P16284_109_CTVIVNNK (UniProt P16284)”: 0.476; “PHC3_Q8NDX5_808_FCTMSCAK (UniProt Q8NDX5)”: -0.0471.
On the same count and under the same terms, to “PEX1_O43933_310_HCAIHVFPWDQEYFDVEPSFTVTYGK (UniProt O43933)” belongs 0.184.
With “PIAS4_Q8N2W9_50_ALQLVQFDCSPELFK (UniProt Q8N2W9)”, the “probe-labelled cysteine peptide fold change” value was 0.0997.
The same measure, in the same setting: to “PGK1_P00558_367+379+380_GCITIIGGGDTATCCAK (UniProt P00558)” belongs 0.208; to “PGP_A6NDG6_272_LDTDILLGATCGLK (UniProt A6NDG6)”, 0.102.
On the same count and under the same terms, next, “PHPT1_Q9NRX4_73_QGCDCECLGGGR (UniProt Q9NRX4)”: 0.088; “PHF12_Q96QT6_613_TENATGPSSCPQR (UniProt Q96QT6)”: -0.224; “PHF14_O94880_495_EGLLSEAAAEEDIADPFFAYCK (UniProt O94880)”: 0.186.
On the same count and under the same terms, to “PFKL_P17858_351_LPLMECVQMTK (UniProt P17858)” belongs -0.0606; to “PHPT1_Q9NRX4_69+71_QGCDCECLGGGR (UniProt Q9NRX4)”, -0.216.
“PFKP_Q01813_718_FTTDDSICVLGISKR (UniProt Q01813)”: the “probe-labelled cysteine peptide fold change” value was -0.314.
On the same count and under the same terms, to “PELP1_Q8IZL8_645_VPPLQPMGPTCPTPAPVPPPEAPSPFR (UniProt Q8IZL8)” belongs -0.386.
For “PGK1_P00558_50_FCLDNGAK (UniProt P00558)”, the “probe-labelled cysteine peptide fold change” value was found to be 0.0371.
With “PEPD_P12955_183_FEVNNTILHPEIVECR (UniProt P12955)”, the “probe-labelled cysteine peptide fold change” value is 0.0861.
The same measure, in the same setting: next, “PHF8_Q9UPP1-2_8_ASVPVYCLCR (UniProt Q9UPP1)”: 0.174; “PHGDH_O43175_281_ALVDHENVISCPHLGASTK (UniProt O43175)”: -0.103; “PHF6_Q8IWS0_242_CMLFSSGTVQLTTTSR (UniProt Q8IWS0)”: 0.0104.
The same measure, in the same setting: to “PHYH_O14832_205_NNGCLVVLPGTHK (UniProt O14832)” belongs 0.22; to “PGM2_Q96G03_484_ASYFICHDQETIKK (UniProt Q96G03)”, 0.237.
Consider “PIK3C2A_O00443_317_STANCHLER (UniProt O00443)”, for which the “probe-labelled cysteine peptide fold change” value was -0.144.
Still for that read-out and setting: next, “PHIP_Q8WWQ0_954_RCPFVPQMGDEVYYFR (UniProt Q8WWQ0)”: -0.346; “PHF10_Q8WUB8_454_TCIICGQPHHEEEMMFCDMCDR (UniProt Q8WUB8)”: -0.438; “PHB_P35232_69_GVQDIVVGEGTHFLIPWVQKPIIFDCR (UniProt P35232)”: -0.0805.
On the same count and under the same terms, to “PGGT1B_P53609_369_QCSENVHIST (UniProt P53609)” belongs -0.414; to “PIGX_Q8TBF5_175_YHRPHSEDGEASIVVNNPDLLMFCDQEFPILK (UniProt Q8TBF5)”, -0.0793; to “PEPD_P12955_482_TVEEIEACMAGCDK (UniProt P12955)”, -0.233.
With “PGGT1B_P53609_147_EACLAGLR (UniProt P53609)”, the “probe-labelled cysteine peptide fold change” value is 0.224.
